Where “and” joins values, the source holds several entries; their conditions need not be identical. Identical values can stand only once. Hit rate of the full screen: of about 59,000 compounds, about 6,500 (11%) were called active. Inconclusive results, whose numbers are uncertain, are shown with a selection of clear calls. No stated cut-off is given here; in the data, active means max dye-equivalent concentration above about 10 nM; inconclusive means mostly about 1.1 nM to 9.6 nM; inactive means weaker than that. The source holds several records for some structures; these can differ, active in one and inactive in another.
Test: qHTS Assay for Spectroscopic Profiling in A350 Spectral Region
Conditions: Compound autofluorescence, 340/450 nm, Alexa 350 dye-equivalents; active compounds read high
From the text: NIH Molecular Libraries Screening Centers Network [MLSCN]
NIH Chemical Genomics Center [NCGC]
Occasionally, the artifactual effect may originate from the compounds own spectral or other biophysical properties which generally tend to track its assay concentration. Pre-screening/profiling the library with respect to the compounds spectral properties should help one exclude false positives early on. While the most informative fluorescent profiling data set is obtained by performing a full excitation and emission scan of each well by using a monochromator-based plate reader, such an approach is practical only on a very limited scale as scanning each well requires long time. An alternative approach, applied here, is to perform plate reader scans using selected excitation and emission wavelength pairs to generate a multidimensional relational database that correlates compound concentration and the respective relative fluorescence intensity at a given wavelength set. A standard curve of Alexa 350 (A 350) present on each plate as six-point concentration series, was used to compute a normalized fluorescence response, termed dye-equivalent concentration, for each compound at each concentration.
NCGC Assay Protocol Summary:
100 mM Tris buffer, pH 8.0
The wells in columns 1 through 4 of a Kalypsys polypropylene 1536-well compound plate were filled with standard solutions of fluorophore corresponding to the spectral region of interest. Solutions of A 350 were placed in the following wells: I1, J1: 3 mM, I2, J2: 300 uM, I3, J3: 30 uM, I4, J4: zero (DMSO), K1, L1: 3 uM, K2, L2: […], K3, L3: 300 nM, K4, L4: zero (DMSO).
Six uL of buffer were dispensed to 1536-well Greiner black plates. Compounds and dye standards (23 nL) were transferred via Kalypsys PinTool. The plates were incubated for 15 min at room temperature, and then read on ViewLux (Perkin-Elmer) High-throughput CCD imager using 340 nm and 450 nm excitation and emission filter set.
Keywords: NIH Roadmap, MLSCN, MLI, MLSMR, qHTS, NCGC, A350, A-350, Fluorescent Profiling.

Row | SMILES | max dye-equivalent concentration
1 | CC1=CC(=O)C2=C(C)C[C@H](O)[C@@H]3[C@@H](OC(=O)[C@H]3C)[C@H]12 | inactive
2 | CCC(=NCc1ccc(F)cc1)c1c(O)n(C)c(=O)n(C)c1=O | inconclusive: 2.5e-09 M
3 | C1CNC2NCCNC2N1 (stereo unspecified) | inconclusive: 1.2e-09 M
4 | COC(=O)c1c(C)ccc2c(O)c3c(cc12)C(=O)c1c2c(cc(O)c1C3=O)[C@@]1(C)O[C@@](C)(O2)[C@@H](O)[C@H](N(C)C)[C@H]1O | active: 1.6e-08 M
5 | CCOC(=O)N1CCN(C(C)C(=O)c2c[nH]c3ccccc23)CC1 (stereo unspecified) | inconclusive: 1.5e-09 M
6 | Cn1cc(CCC(=O)N2CCC3(CC2)OCCO3)c2ccccc21 | inconclusive: 3.6e-09 M
7 | C[C@]1(C(=O)O)[C@@H]2CC[C@@H](O2)[C@@]1(C)C(=O)O | inactive
8 | CCCOC(=O)[C@@H]1[C@@H](C(=O)O)[C@H]2CC[C@@H]1O2 | inactive
9 | CCN(CC)CCCN=Cc1c(O)n(CCc2ccc(OC)c(OC)c2)c(=O)[nH]c1=O | inconclusive: 1.6e-09 M
10 | C[C@@]12CC[C@H]3[C@@H](CC[C@]4(O)C[C@H](O)CC[C@@]34C=O)[C@]1(O)CC[C@@H]2C1=CC(=O)OC1 | inactive
11 | CC(=NCCCN1CCOCC1)c1c(O)n(-c2ccccc2C)c(=O)[nH]c1=O | inactive
12 | Cc1ncc(CNC(=O)N(CCCl)N=O)c(N)n1 | inconclusive: 6.5e-09 M
13 | Cc1ccc2c(c1)C1CN(C)CCC1N2C(=O)Cc1cccs1 (stereo unspecified) | inconclusive: 1.6e-09 M
14 | CCOc1cc(C(=O)N2CCC3(CC2)OCCO3)cc(OCC)c1OCC | inconclusive: 1.7e-09 M
15 | CC(C)n1cc2c3c(cccc31)[C@@H]1C[C@H](C(=O)O[C@@H](C)[C@H](C)O)CN(C)[C@H]1C2 | inconclusive: 2.5e-09 M
16 | CCOC(=O)c1cncn1[C@@H](C)c1ccccc1 | inconclusive: 1.2e-09 M
17 | CC(=NCCCO)c1c(O)n(Cc2ccccc2)c(=O)[nH]c1=O | inconclusive: 3.3e-09 M
18 | C=C1C/C(=C\C)C(=O)O[C@@H]2CCN3CC=C(COC(=O)[C@]1(C)O)[C@H]23 | inactive
19 | Nc1c(C(=O)NCCN2CCOCC2)c2nc3ccccc3nc2n1Cc1ccco1 | active: 2.7e-06 M
20 | COC(=O)c1cc(C(O)(C(=O)OC)C(F)(F)F)c(/N=C/N(C)C)s1 (stereo unspecified) | inconclusive: 7.5e-09 M
21 | CN(C)[C@@H]1C(=O)C(C(N)=O)=C(O)[C@@]2(O)C(=O)C3=C(O)c4c(O)ccc(Cl)c4[C@@](C)(O)C3C[C@@H]12 (stereo partly specified) | inconclusive: 1.8e-09 M

Row | SMILES | max dye-equivalent concentration
22 | O=C(CCCOc1ccc(Cl)cc1Cl)N1CCC2(CC1)OCCO2 | inconclusive: 1.1e-09 M
23 | CN(CC1COc2ccccc2O1)c1nc(-c2cccnc2)nc2ccccc12 (stereo unspecified) | inconclusive: 1.9e-09 M
24 | O=C(c1ccncc1)N1CCC[C@@]2(CCN(Cc3nccs3)C2)C1 | inactive
25 | CCCn1ncc(C(=O)O)c1C | inactive
26 | CC(C)C(=O)CP(=O)(O)O | inactive
27 | CCCCn1c(=O)c(C(=O)Nc2nc3ccccc3[nH]2)c(O)c2ccccc21 | inconclusive: 6.9e-09 M
28 | COc1ccc(C(=O)N2CCCC2=O)cc1 | inconclusive: 2.6e-09 M and inconclusive: 1.9e-09 M
29 | COc1ccc(Cn2c(N)c(C(=O)NCc3ccco3)c3nc4ccccc4nc32)cc1 | active: 6.5e-07 M
30 | CCN(CC)CCCN=C(C)c1c(O)n(-c2ccc(C)cc2)c(=O)[nH]c1=O | inconclusive: 1.5e-09 M
31 | Cn1c(O)c(/C=N/c2ccccn2)c(=O)n(C)c1=O | inconclusive: 6e-09 M
32 | Cc1ccc(CN2C(=O)NC(=O)C3(Cc4c(nc5ccccn5c4=O)N4CCCCCC43)C2=O)cc1 (stereo unspecified) | inconclusive: 1.7e-09 M
33 | CCC(=NCCOc1ccc(Cl)cc1)c1c(O)n(C)c(=O)n(C)c1=O | active: 1.1e-08 M
34 | CN(C)Cc1c[nH]c2ccccc12 | inconclusive: 7.8e-09 M
35 | O=C1NC(=S)NC(=O)C1=Cc1cccc2cc3ccccc3cc12 | inconclusive: 3.8e-09 M
36 | CC(C)=CCC12CN3CCN(CC(C3)C1=O)C2 | inconclusive: 2e-09 M
37 | CCOC(=O)C1=C(N)OC2=C(C(=O)CCC2)C12C(=O)N1c3c(ccc(C)c32)C(C)=CC1(C)C (stereo unspecified) | inconclusive: 7.3e-09 M
38 | Cc1nc2ccccc2c(=O)n1-c1cccc(O)c1 | inconclusive: 1.5e-09 M
39 | C[N+]1(C)CCc2cc3c(cc2[C@@H]1[C@@H]1OC(=O)c2c1ccc1c2OCO1)OCO3 | inactive
40 | C=CCN1C(=O)C2(C(C(=O)OCC)=C(N)Oc3ccccc32)c2c1c1ccccc1oc2=O (stereo unspecified) | inconclusive: 4.9e-09 M
41 | COc1ccn(C)c(=O)c1C#N | inconclusive: 6.9e-09 M
42 | CCN1C[C@@]2(COC)CC[C@H](OC)[C@]34[C@@H]1[C@]1(OCO[C@@]15C[C@@H](OC)C1C[C@H]3[C@H]5[C@@H]1OC)[C@H](O)[C@@H]24 | inconclusive: 1.1e-09 M

Row | SMILES | max dye-equivalent concentration
43 | CCOc1ccccc1-n1c(O)c(C=NCc2ccc3c(c2)OCO3)c(=O)[nH]c1=O | inconclusive: 1.1e-09 M
44 | Nc1nc(N)c(N=Nc2ccc([As](=O)(O)O)c(O)c2)c(N)n1 | inconclusive: 4.8e-09 M
45 | O=C(c1ccc2nc(-c3ccco3)c(-c3ccco3)nc2c1)N1CCC2(CC1)OCCO2 | inconclusive: 9.5e-09 M
46 | Cc1ccc(N2C(=O)NC(=O)C3(Cc4ccccc4N4CCCC43)C2=O)cc1 (stereo unspecified) | active: 2.9e-08 M
47 | C[C@@H]1Cc2cc3c(cc2C(c2ccc(N)cc2)=NN1)OCO3 | inactive
48 | C=CCn1c(O)c(C(C)=NCCCO)c(=O)[nH]c1=O | inactive
49 | Cc1cccc(C2=NCC(=O)N(CC(=O)NCc3ccco3)c3sc4c(c32)CCCC4)c1 | inconclusive: 4e-09 M
50 | CN1CCC(c2c[nH]c3ccc(O)cc23)CC1 | inconclusive: 3.8e-09 M
51 | COc1ccc2[nH]c3c(c2c1)CCN=C3C | inconclusive: 3.4e-09 M
52 | Cc1c(C(=O)N2CCC3(CC2)OCCO3)oc2ccccc12 | inconclusive: 9.6e-09 M
53 | O=c1[nH]c(=O)n(Cc2ccco2)c(O)c1C=NCCCn1ccnc1 | inconclusive: 1.8e-09 M
54 | CCN1C[C@@]2(COC)[C@H]3[C@@H](OC)[C@H]4C1[C@@]3([C@H](OC)C[C@@H]2O)[C@H]1C[C@@]2(O)[C@@H](OC(=O)c3ccccc3)[C@@H]1[C@@]4(OC(C)=O)[C@H](O)[C@@H]2OC | inconclusive: 5e-09 M
55 | Cc1cccn2c(NCC3CCCO3)c(C(C)C)nc12 (stereo unspecified) | inconclusive: 9.5e-09 M
56 | CCN(CC)CCCC(C)N=C(c1ccccc1)c1c(O)n(C)c(=O)n(C)c1=O (stereo unspecified) | inconclusive: 2.5e-09 M
57 | Cc1c(N=Cc2c(O)n(CCc3ccc(F)cc3)c(=O)[nH]c2=O)c(=O)n(-c2ccccc2)n1C | active: 4.4e-08 M
58 | O=c1[nH]c(=O)n(Cc2ccco2)c(O)c1C=NCc1cccs1 | inactive
59 | COc1ccc(C(=O)CN2CCOCC2)cc1F | inconclusive: 1.5e-09 M
60 | COc1cccc(-n2c(C)nc3ccccc3c2=O)c1 | inactive
61 | Clc1cc(I)cc(Cl)c1NC1=NCCN1 | inconclusive: 2.7e-09 M
62 | CN1CCN(C(=O)COc2ccc(-c3nc4ccccc4s3)cc2)CC1 | inconclusive: 2.5e-09 M
63 | COCC(C)OC(=O)c1c(N)n(Cc2ccco2)c2nc3ccccc3nc12 (stereo unspecified) | active: 3.9e-06 M

Row | SMILES | max dye-equivalent concentration
64 | CCCNC(=O)c1c(N)n(Cc2ccc3c(c2)OCO3)c2nc3ccccc3nc12 | active: 1.8e-07 M
65 | Cc1ccc(-n2c(O)c(C=NCc3cccnc3)c(=O)[nH]c2=O)cc1C | inconclusive: 3.3e-09 M
66 | Cc1nn(-c2ccccc2)c2c1CC1(C(=O)N(C)C(=O)N(C)C1=O)C1CCCCN21 (stereo unspecified) | inactive
67 | O=c1ccc2cc(O[C@@H]3O[C@@H](CO)[C@@H](O)[C@@H](O)[C@H]3O)c(O)cc2o1 | active: 8.7e-06 M
68 | O=c1c2ccccc2nc(CSc2ncnc3nc[nH]c23)n1-c1ccccc1 | inconclusive: 1.4e-09 M
69 | CN1C[C@H](C(=O)N[C@@]2(C)O[C@@]3(O)[C@H]4CCCN4C(=O)[C@@H](Cc4ccccc4)N3C2=O)C=C2c3cccc4[nH]cc(c34)C[C@@H]21 | inconclusive: 6.7e-09 M
70 | NCCc1ccc(O)cc1 | active: 7.1e-08 M
71 | CC[C@H]1[C@@H]2C[C@@H]3[C@@H]4N(C)c5ccccc5[C@@]45C[C@@H]([C@H]2[C@@H]5O)N3[C@@H]1O | inactive
72 | CCC(=NCc1ccco1)c1c(O)n(-c2ccc(OC)cc2)c(=O)[nH]c1=O | inactive
73 | CC(C)[C@@]1(NC(=O)[C@@H]2C=C3c4cccc5[nH]cc(c45)C[C@@H]3N(C)C2)O[C@]2(O)[C@H]3CCCN3C(=O)[C@H](Cc3ccccc3)N2C1=O | inconclusive: 1e-08 M
74 | CCC1CCCCN1P(=O)(c1ccc(C)o1)C(C)(C)C (stereo unspecified) | inconclusive: 2.3e-09 M
75 | CC[C@H](CO)NC(=O)[C@@H]1C=C2c3cccc4[nH]cc(c34)C[C@@H]2N(C)C1 | active: 5.6e-08 M
76 | O=C(Cc1ccccc1)N1CCN(CC2CC=CCC2)CC1 (stereo unspecified) | inconclusive: 1.9e-09 M
77 | COc1ccc2c(c[n+](C)c3c4cc5c(cc4ccc23)OCO5)c1OC | inactive
78 | Cc1ccc(C2(c3ccc(C)c(O)c3C)CCN(C)CC2)c(C)c1O | inactive
79 | CCCCn1c(O)c(C=NC2CC3CCC2(C)C3(C)C)c(=O)[nH]c1=O (stereo unspecified) | active: 1.5e-07 M
80 | N#Cc1cc2c(nc1SCC(=O)Nc1ccc(Cl)cc1)C1CCN2CC1 | inconclusive: 2.8e-09 M
81 | O=C(O)C(=O)Cc1ccc2c(c1)OCO2 | inactive

From PubChem BioAssay AID590 (National Center for Advancing Translational Sciences (NCATS), 2007)
